Experimental data taken from US20260132208A1.
These are yes or no findings as the source states them, for the method shown. Some results given as binding are weak or reduced against the parent protein; the word gives no strength.

Amino acid sequences for entries named in this document (tags omitted). A change or cut given only in a name is not applied to a line headed by its entry.
UniProt P51685: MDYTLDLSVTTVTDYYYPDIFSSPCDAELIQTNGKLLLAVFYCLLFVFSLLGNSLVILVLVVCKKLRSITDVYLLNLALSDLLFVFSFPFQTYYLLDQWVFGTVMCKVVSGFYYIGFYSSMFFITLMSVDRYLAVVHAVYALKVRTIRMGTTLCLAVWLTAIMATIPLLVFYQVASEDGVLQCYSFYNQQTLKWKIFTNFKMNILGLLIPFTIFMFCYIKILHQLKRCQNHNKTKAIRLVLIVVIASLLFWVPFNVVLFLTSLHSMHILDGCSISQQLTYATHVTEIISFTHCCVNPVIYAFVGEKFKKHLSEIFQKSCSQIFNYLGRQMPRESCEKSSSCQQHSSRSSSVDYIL

What was measured:
pm3 = assay: ELISA on coated peptide [cont.]
pm5 = assay: ELISA on coated peptide [cont.]
pm6 = assay: ELISA on coated peptide [cont.]
pm8 = assay: ELISA on coated peptide [cont.]
pwt1 = assay: ELISA on coated peptide [cont.]
human CCR8 (human) [1] = target: human CCR8 (human) (UniProt P51685); assay: flow cytometry, hCCR8-transfected CHO-K1 cells
human CCR8 (human) [2] = target: human CCR8 (human) (UniProt P51685); assay: flow cytometry competition on hCCR8 transfected CHO cells; blocked ligand hCCL1-AF647 [cont.]

binding (pm3): binds
binding (pm5): binds
binding (pm6): binds
binding (pm8): binds
binding (pwt1): binds
binding (human CCR8 (human) [1]): binds
binding (human CCR8 (human) [2]): binds
B1: anti-CCR8 mAb 1-17 (antibody, V domains shown)
VH: QVQLQQPGSELVRPGASVKLSCKASGYTFTSYWMHWVKQRPGQGLEWIGNIWPGSASTNYDEKFKNKATLTVDTSSSTAYMQLSSLTSEDSAVYYCIRGGKGAMDYWSQGTSVTVSS
VL: DVVMTQIPLSLPVSLGDQASISCRSSQSLENSYGNTYLNWYLQKPGQSPQLLIYRVSNRFSGVLDRFSGSGSGTDFTLKISRVEAEDLGVYFCLQVTHVPPTFGAGTKLELK
